According to paper PMC3526264, “The C-terminus of Dpb2 is required for interaction with Pol2 and for cell viability” (Nucleic Acids Research, 2012):
Results are given in words; binding and its absence hold for the method and conditions named. In cells and extracts the contact can be indirect. Some entries that bind do so weakly or less than the wild type. For some of these results: Sequences can lack the tags named with a protein.

Sequences of proteins named here, by UniProt entry; tags and fusion partners are left off.
UniProt P21951: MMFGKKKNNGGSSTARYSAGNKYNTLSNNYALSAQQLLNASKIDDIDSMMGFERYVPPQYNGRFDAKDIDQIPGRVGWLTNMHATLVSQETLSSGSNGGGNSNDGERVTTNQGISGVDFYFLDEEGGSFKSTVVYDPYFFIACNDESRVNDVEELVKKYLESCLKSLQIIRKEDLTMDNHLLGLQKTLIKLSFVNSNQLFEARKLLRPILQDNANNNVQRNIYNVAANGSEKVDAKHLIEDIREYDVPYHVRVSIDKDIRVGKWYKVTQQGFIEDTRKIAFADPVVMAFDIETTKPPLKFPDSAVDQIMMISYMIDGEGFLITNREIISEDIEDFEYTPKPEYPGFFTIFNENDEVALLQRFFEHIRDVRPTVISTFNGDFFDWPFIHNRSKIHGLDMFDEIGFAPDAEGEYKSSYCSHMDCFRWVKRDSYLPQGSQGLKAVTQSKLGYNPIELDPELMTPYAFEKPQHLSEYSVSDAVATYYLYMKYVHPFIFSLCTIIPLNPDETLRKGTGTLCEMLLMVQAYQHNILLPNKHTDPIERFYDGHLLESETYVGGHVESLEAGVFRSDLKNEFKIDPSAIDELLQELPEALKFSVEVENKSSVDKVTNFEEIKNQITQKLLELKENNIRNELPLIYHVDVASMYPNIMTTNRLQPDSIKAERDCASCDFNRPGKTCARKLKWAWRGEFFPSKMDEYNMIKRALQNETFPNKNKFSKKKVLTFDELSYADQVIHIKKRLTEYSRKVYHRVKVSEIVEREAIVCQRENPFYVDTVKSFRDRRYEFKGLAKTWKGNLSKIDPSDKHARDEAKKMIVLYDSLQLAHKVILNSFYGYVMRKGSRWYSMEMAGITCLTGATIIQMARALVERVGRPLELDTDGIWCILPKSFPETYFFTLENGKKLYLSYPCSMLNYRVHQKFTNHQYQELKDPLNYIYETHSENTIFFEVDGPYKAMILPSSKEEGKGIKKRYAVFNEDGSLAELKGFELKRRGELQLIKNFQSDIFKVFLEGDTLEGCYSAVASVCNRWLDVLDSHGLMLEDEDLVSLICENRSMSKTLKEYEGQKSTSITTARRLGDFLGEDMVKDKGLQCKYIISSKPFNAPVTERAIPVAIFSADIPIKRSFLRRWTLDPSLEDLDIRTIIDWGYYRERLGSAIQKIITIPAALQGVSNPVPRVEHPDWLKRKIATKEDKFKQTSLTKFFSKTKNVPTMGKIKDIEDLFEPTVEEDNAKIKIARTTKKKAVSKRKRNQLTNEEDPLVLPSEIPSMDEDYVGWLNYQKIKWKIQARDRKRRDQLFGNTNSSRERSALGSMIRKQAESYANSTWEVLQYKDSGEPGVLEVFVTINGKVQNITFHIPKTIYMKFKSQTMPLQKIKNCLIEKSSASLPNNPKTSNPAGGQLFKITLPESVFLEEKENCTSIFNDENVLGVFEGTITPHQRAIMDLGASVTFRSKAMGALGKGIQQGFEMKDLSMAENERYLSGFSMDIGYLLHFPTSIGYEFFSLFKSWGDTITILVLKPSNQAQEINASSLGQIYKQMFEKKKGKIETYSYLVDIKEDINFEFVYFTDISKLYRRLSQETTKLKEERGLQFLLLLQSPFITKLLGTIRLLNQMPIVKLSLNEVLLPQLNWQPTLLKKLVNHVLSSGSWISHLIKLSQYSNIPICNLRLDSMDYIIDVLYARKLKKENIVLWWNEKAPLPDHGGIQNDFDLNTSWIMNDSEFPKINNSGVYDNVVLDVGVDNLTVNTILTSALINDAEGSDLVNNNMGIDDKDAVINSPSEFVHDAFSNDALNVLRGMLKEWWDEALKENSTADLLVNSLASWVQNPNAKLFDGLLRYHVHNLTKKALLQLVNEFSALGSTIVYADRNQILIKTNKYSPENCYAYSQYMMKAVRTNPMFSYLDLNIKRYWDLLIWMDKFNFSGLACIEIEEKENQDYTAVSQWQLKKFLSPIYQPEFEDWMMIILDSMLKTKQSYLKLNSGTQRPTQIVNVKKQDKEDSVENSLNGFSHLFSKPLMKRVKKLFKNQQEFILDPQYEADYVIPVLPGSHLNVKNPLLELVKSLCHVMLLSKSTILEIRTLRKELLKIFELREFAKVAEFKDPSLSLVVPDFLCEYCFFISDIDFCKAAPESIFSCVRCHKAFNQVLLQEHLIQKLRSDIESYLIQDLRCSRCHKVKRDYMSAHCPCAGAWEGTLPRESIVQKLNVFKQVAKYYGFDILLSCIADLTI

How the values were obtained:
GST-Dpb2 (S. cerevisiae) = target: T1, GST-Dpb2 (S. cerevisiae) (UniProt P24482); assay: pull-down; GST-tagged subunit (GST-Pol2, GST-Dpb2 or GST–Dpb2-201) co-over-expressed in S. cerevisiae PY116 with the remaining subunits; lysate, ammonium sulfate, phosphocellulose, then glutathione sepharose; washed with 20 column volumes Buffer B (25 mM Hepes-NaOH pH 7.6, 10% glycerol), eluted with 20 mM glutathione; colloidal Coomassie-stained 10% SDS-PAGE
T1 sequence: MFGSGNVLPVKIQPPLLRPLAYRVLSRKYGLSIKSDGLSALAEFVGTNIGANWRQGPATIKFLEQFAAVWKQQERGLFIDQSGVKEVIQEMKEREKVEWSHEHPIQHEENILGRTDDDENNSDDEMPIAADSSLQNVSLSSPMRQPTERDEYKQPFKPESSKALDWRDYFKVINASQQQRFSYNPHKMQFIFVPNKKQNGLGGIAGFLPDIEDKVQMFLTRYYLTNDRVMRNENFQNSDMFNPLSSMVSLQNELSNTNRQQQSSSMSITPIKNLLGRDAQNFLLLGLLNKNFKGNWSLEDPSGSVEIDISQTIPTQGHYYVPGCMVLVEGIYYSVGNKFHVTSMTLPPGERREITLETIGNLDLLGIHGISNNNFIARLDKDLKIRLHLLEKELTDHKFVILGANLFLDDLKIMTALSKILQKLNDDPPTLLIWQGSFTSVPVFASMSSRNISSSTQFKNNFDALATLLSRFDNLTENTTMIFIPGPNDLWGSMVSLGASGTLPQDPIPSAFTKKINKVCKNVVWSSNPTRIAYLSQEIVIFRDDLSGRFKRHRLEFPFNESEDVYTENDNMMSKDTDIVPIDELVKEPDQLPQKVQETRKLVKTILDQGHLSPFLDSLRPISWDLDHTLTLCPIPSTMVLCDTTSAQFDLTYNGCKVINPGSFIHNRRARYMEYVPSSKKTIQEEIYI

GST-Pol2 (S. cerevisiae) = GST-Pol2 (S. cerevisiae) (UniProt P21951); assay: as above

Molecule | binding (GST-Dpb2 (S. cerevisiae)) | binding (GST-Pol2 (S. cerevisiae))
Pol2 (from UniProt P21951 1-2222) (enzyme) | binds | 
Dpb2 (protein, UniProt P24482 1-689) MFGSGNVLPVKIQPPLLRPLAYRVLSRKYGLSIKSDGLSALAEFVGTNIGANWRQGPATIKFLEQFAAVWKQQERGLFIDQSGVKEVIQEMKEREKVEWSHEHPIQHEENILGRTDDDENNSDDEMPIAADSSLQNVSLSSPMRQPTERDEYKQPFKPESSKALDWRDYFKVINASQQQRFSYNPHKMQFIFVPNKKQNGLGGIAGFLPDIEDKVQMFLTRYYLTNDRVMRNENFQNSDMFNPLSSMVSLQNELSNTNRQQQSSSMSITPIKNLLGRDAQNFLLLGLLNKNFKGNWSLEDPSGSVEIDISQTIPTQGHYYVPGCMVLVEGIYYSVGNKFHVTSMTLPPGERREITLETIGNLDLLGIHGISNNNFIARLDKDLKIRLHLLEKELTDHKFVILGANLFLDDLKIMTALSKILQKLNDDPPTLLIWQGSFTSVPVFASMSSRNISSSTQFKNNFDALATLLSRFDNLTENTTMIFIPGPNDLWGSMVSLGASGTLPQDPIPSAFTKKINKVCKNVVWSSNPTRIAYLSQEIVIFRDDLSGRFKRHRLEFPFNESEDVYTENDNMMSKDTDIVPIDELVKEPDQLPQKVQETRKLVKTILDQGHLSPFLDSLRPISWDLDHTLTLCPIPSTMVLCDTTSAQFDLTYNGCKVINPGSFIHNRRARYMEYVPSSKKTIQEEIYI |  | binds
Dpb3 (natural protein, S. cerevisiae, UniProt P27344 1-201, looked up, Dpb3, subunit of DNA polymerase epsilon, S. cerevisiae; over-expression vector pJL5 (Dpb3 and Dpb4); source: S. cerevisiae pY116, galactose-induced over-expression (pJL5), co-expressed with the other Pol ε subunits) MSNLVKEKAPVFPISKVKKIAKCDPEYVITSNVAISATAFAAELFVQNLVEESLVLAQLNSKGKTSLRLSLNSIEECVEKRDNFRFLEDAIKQLKKNSALDKKRELNMQPGRSDQEVVIEEPELHEDDGVEEEEEEDEVSEEEEPVHNEELLDDSKDQQNDKSTRSVASLLSRFQYKSALDVGEHSDSSDIEVDHTKSTDP |  | binds
Dpb4 (natural protein, S. cerevisiae, UniProt Q04603 1-196, looked up, Dpb4, subunit of DNA polymerase epsilon, S. cerevisiae; over-expression vector pJL5 (Dpb3 and Dpb4); source: S. cerevisiae pY116, galactose-induced over-expression (pJL5), co-expressed with the other Pol ε subunits) MPPKGWRKDAQGNYPTTSYIKEQENITIQDLLFPKSTIVNLAREVPQQSGKKLLINKDASLALQRGATVFVNHLLLFAREIAKSQDKKSCSVDDVLSALDHIGHSALKGPVRDKLDEYQAAVEQRKKEKLDSGEVDADGDIDMGEDKENVPVEKVKEHDEIEEQGDALQDVEESSEKKQKTESQDVETRVQNLEQT |  | binds
